The text below walks through data of article PMC12409426.

Protein sequences, listed by entry. Tags and fused reporters are not part of them.
UniProt Q00987: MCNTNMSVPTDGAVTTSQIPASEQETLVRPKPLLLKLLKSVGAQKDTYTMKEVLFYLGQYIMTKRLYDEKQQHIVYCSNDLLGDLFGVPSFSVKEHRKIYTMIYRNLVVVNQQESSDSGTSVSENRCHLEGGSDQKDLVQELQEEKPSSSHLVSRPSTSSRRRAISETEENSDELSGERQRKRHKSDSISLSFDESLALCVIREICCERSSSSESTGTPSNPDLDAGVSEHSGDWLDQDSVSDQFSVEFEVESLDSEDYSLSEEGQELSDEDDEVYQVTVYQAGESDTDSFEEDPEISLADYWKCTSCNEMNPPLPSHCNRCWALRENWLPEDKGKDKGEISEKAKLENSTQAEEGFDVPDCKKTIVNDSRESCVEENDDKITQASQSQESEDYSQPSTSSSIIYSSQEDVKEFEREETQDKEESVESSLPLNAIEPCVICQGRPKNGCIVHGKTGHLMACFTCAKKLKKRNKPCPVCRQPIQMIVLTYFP
UniProt P04792: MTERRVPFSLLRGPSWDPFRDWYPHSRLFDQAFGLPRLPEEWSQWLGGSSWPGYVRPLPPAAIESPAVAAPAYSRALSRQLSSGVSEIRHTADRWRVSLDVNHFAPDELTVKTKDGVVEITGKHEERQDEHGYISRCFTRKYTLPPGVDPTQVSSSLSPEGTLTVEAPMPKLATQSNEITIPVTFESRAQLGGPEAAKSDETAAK
UniProt Q99755: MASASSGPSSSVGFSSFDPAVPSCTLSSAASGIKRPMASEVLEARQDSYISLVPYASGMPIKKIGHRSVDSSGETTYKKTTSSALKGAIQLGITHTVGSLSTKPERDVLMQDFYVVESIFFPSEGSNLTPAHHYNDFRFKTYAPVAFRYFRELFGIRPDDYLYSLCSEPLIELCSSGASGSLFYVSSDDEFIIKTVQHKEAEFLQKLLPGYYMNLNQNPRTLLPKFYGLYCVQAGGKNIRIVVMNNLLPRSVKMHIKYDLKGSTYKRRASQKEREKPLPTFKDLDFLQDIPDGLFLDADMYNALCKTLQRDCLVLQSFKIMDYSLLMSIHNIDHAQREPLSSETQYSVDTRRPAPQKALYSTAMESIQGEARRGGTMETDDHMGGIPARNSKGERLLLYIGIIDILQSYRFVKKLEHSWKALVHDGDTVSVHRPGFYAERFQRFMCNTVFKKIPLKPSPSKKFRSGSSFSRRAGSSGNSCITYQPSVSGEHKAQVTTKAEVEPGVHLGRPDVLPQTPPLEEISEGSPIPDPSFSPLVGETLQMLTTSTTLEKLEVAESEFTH

Test [1] has as its target MDM2 (endogenous) (human (endogenous in MDA-MB-231)) (UniProt Q00987). In words: co-IP; endogenous MDM2 immunoprecipitated with anti-MDM2 (SMP14) agarose from RIPA lysates, 4 °C 24 h, IB; cells treated with vehicle or 30 μM cisplatin for 24 h.
The target is the same in test [2]. In words: proximity ligation; Duolink PLA on fixed, permeabilised cells (MDA-MB-231) treated with vehicle or 30 μM cisplatin for 24 h (PIPKIα siRNA as control); nuclear foci counted.
The target in test [3] is His-tagged MDM2 (recombinant, bacteria-expressed) (UniProt Q00987). In words: pull-down; recombinant MDM2 (0.1-1 μg) incubated with one recombinant partner, pulled down with anti-MDM2 (SMP14) agarose, IB; overnight 4 °C in 50 mM Tris-HCl pH 8.0, 50 mM NaCl, 80 mM KCl, 0.05% Tween-20; PIP2 (0-50 μM) added in some panels; both purified.

Results are given in words; binding and its absence hold for the method and conditions named. For part of these data: In cells and extracts the contact can be indirect. Some binding calls cover weakened binding; strength is not graded here.

Turning to “HSP27 (endogenous) (from UniProt P04792 1-205)”, the binding entry in test [1] and in test [2] was “binds” throughout.
For the substance “HSP27 (recombinant, His-tagged) (from UniProt P04792 1-205)”, the binding entry in test [3] was “binds”.
Consider “PIPKIα (endogenous) (from UniProt Q99755 1-562) (enzyme)”, for which the binding result in test [1] and in test [2] was “binds” each time.
As for “PIPKIα (recombinant, His-tagged) (from UniProt Q99755 1-562) (enzyme)”, the binding result in test [3] was “binds”.
